Data as given in PubChem BioAssay AID743454 (Peter MacCallum Cancer Centre, 2014).
Here is one part, drawn at random, of about 18,000 deposited reagents. Over the whole deposit, 450 (2.5%) were called active. 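Single biological run; no consistent viability z cut-off exists, so the class columns, not z-scores, define the calls.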

- Screen: 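Knock-downs lowering viability or raising caspase 3/7 activity in vorinostat-treated resistant cells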 (primary screen)
- System: human HCT116-VR colon cancer cells, selected for vorinostat resistance
- Reagent: siRNA pool against human genes, 40 nM siRNA pool
- Timing: vorinostat for 24 h, read-out about 72 h after transfection
- Conditions: vorinostat at 2.5 µM final
- Measured: 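Cell viability by CellTiter-Fluor and caspase 3/7 activity by luminescence, each scaled to mock wells per plate, duplicates averaged, then robust z-scored over all plates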
- Direction: viability robust z-score: higher = more viable cells than screen typical; caspase robust z-score: higher = more caspase 3/7 activity than screen typical
- Rule for the call: 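a knock-down is a hit when classed RV1 or RV2 for lowered viability, or CA1 or CA2 for caspase activation; those lethal without drug were dropped; hits were retested singly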

Gene | viability hit class | caspase hit class | viability robust z-score | caspase robust z-score | Call
G2E3 (GeneID 55632) | no change | no change | 0.06 | -0.76 | inactive
SLC4A5 (GeneID 57835) | no change | no change | 0.15 | 0.37 | inactive
CLPSL2 (GeneID 389383) | no change | no change | 0.55 | -0.11 | inactive
OR6B3 (GeneID 150681) | no change | no change | 0.2 | -0.19 | inactive
AKR1E2 (GeneID 83592) | no change | no change | -0.16 | -0.74 | inactive
CA2 (GeneID 760) | no change | no change | 0.47 | 0.36 | inactive
ZNF319 (GeneID 57567) | no change | no change | 0.52 | -0.26 | inactive
TUBB1 (GeneID 81027) | no change | no change | -0.25 | -0.78 | inactive
AQP5 (GeneID 362) | no change | no change | 0.91 | 0.24 | inactive
ALOX15 (GeneID 246) | no change | CA2 (caspase activation) | -2.11 | 5.56 | active
POLG (GeneID 5428) | no change | no change | -0.01 | -0.7 | inactive
ANAPC16 (GeneID 119504) | no change | no change | 1.18 | -0.6 | inactive
ANKRD30A (GeneID 91074) | no change | no change | -2.41 | 2.54 | inactive
ZSCAN4 (GeneID 201516) | no change | no change | 0.35 | -0.79 | inactive
SPIN1 (GeneID 10927) | no change | no change | 0.6 | -0.24 | inactive

Continued; the last 4 above are carried over.
Gene | viability hit class | caspase hit class | viability robust z-score | caspase robust z-score | Call
ANAPC16 (GeneID 119504) | no change | no change | 1.18 | -0.6 | inactive
ANKRD30A (GeneID 91074) | no change | no change | -2.41 | 2.54 | inactive
ZSCAN4 (GeneID 201516) | no change | no change | 0.35 | -0.79 | inactive
SPIN1 (GeneID 10927) | no change | no change | 0.6 | -0.24 | inactive
FGF3 (GeneID 2248) | no change | no change | 0.35 | 0.37 | inactive
COG7 (GeneID 91949) | no change | no change | 0.24 | -0.2 | inactive
LAMA5 (GeneID 3911) | no change | no change | 2.08 | -0.05 | inactive
ZNF618 (GeneID 114991) | no change | CA1 (caspase activation) | 1.2 | 5.77 | active
GCNT1 (GeneID 2650) | no change | no change | -0.17 | 2.12 | inactive
ZDHHC17 (GeneID 23390) | no change | no change | -0.43 | 0.48 | inactive
CATSPER1 (GeneID 117144) | no change | no change | 0.43 | 1.82 | inactive
SPCS1 (GeneID 28972) | no change | no change | -1.77 | -0.59 | inactive
ZNF658B (GeneID 401509) | no change | no change | -0.24 | 1.17 | inactive
STAT5A (GeneID 6776) | no change | no change | -0.4 | -0.6 | inactive
BTBD8 (GeneID 284697) | no change | no change | 1.29 | -0.48 | inactive
ESPNL (GeneID 339768) | no change | no change | 0.86 | 1.04 | inactive
BET1L (GeneID 51272) | no change | no change | -0.8 | 2.17 | inactive
MRPL45 (GeneID 84311) | no change | no change | -0.02 | 0 | inactive
BRS3 (GeneID 680) | no change | no change | -1.12 | -0.68 | inactive
TNKS (GeneID 8658) | no change | no change | -0.14 | 0.29 | inactive
AKT2 (GeneID 208) | no change | no change | 0.78 | -0.37 | inactive
RUVBL2 (GeneID 10856) | no change | no change | -2.73 | 1.5 | inactive
OR6N1 (GeneID 128372) | no change | no change | -0.56 | -0.54 | inactive
ZNF271P (GeneID 10778) | no change | no change | 0.2 | 0.74 | inactive
LCN6 (GeneID 158062) | no change | no change | -0.82 | 1.27 | inactive
KRT82 (GeneID 3888) | no change | no change | 0.08 | 1.06 | inactive
CRK (GeneID 1398) | no change | no change | -0.38 | -0.6 | inactive
PARVB (GeneID 29780) | no change | no change | -0.55 | 0.12 | inactive
